Measured values published in US11986466B2, “Methods of treating solid tumors with CCR2 antagonists” (CHEMOCENTRYX, INC., priority 2018, dated 2024).
Entries after “also recorded” stand apart in the source; their conditions may differ.

Test: H&E histology and appearance of tumor-bearing ears
Format: in vivo, C57BL/6 mice
Conditions: one week (day 7) of treatment, vs vehicle
Protocol: FIG. 4A-D. Enhanced inflammation is associated with CCR2 antagonism by Compound 1 in the tumor microenvironment. (A, B) Ear tissues were collected from mice treated by Compound 1 (60 mg/kg) or vehicle on day 7. Representative images for HE sections and IHC staining with anti-F4/80 were shown for the ear tissues from Compound 1 and vehicle treated group. (C, D) Ears from day 7 were also analyzed by flow cytometry to quantify the numbers of the two major myeloid subpopulations in TME with antibodies for CD11b, F4/80 and Ly6G.
H&E and Histoimmunochemistry. After mouse ear tumors were surgically removed at the ear base, the ear sample was cut into two parts along the long axis and placed in RNA later for RNA extraction or into 10% formalin for hematoxylin and eosin (H&E) staining or immunohistochemical staining with purified mouse antibodies (anti-CD8 and anti-F4/80 from Biolegend, San Diego, CA).

Q: For `C[C@H]1CN([C@@H]2CC[C@@](C(=O)N3COc4c(cc(C(F)(F)F)cc4C(F)(F)F)C3)(C3CC3)OC2)CC[C@@H]1c1cccc(C(=O)O)c1` [Compound 1], which “skin inflammation / lesions at the tumor site” value is on record?
A: neutrophilic abscesses and epidermal ulceration occurred; also recorded: significantly enhanced skin inflammation
